This is an account of results in US6288036A (priority 1993, dated 2001).

Where no end group is shown, it is not given here. [ ]: non-standard residue; d: D form. Oic = O=C(O)[C@@H]1C[C@@H]2CCCC[C@@H]2N1; Hyp = O=C(O)[C@@H]1C[C@@H](O)CN1; 2Thi = N[C@@H](Cc1cccs1)C(=O)O

The series in a line: Boc solid-phase peptide synthesis; Boc-Arg(Tos)-PAM resin. Conditions: whole synthesis, scale 0.25 g resin.

Substance [dR]RP[Hyp]G[2Thi]S[dF][Oic]R displayed a crude mass of 176 mg and an isolated mass of 53 mg.
